Some results were stated once for a whole list of compounds, not compound by compound. At least one compound was matched to its structure with a doubt left.
Assay: Residue testing on treated fish
Assay type: in vivo, salmon
Details: within 21 to 28 days after medication ended

| Structure (SMILES) | residue levels in the treated fish |
| --- | --- |
| O=[N+]([O-])/N=C1\NCC(O)N1Cc1ccc(Cl)nc1 (centres unmarked) [5-hydroxy imidacloprid] | below 0.02 ppm |
| O=[N+]([O-])Nc1nccn1Cc1ccc(Cl)nc1 [imidacloprid olefin] | below 0.02 ppm |

— patent US11260029B2, “Fish feed compositions containing a neonicotinoid for preventing and treating parasite infections” (priority 2014, dated 2022)
